# PubChem BioAssay AID624297 (National Center for Advancing Translational Sciences (NCATS), 2012)
# Among all 340,000 compounds or so, about 6,200 (1.8%) were called active. Inconclusive results, whose numbers are uncertain, are shown with a selection of clear calls. Calls follow the shape of the dose curve; as a rule, active = well fitted activation curve with a large enough effect; inconclusive = small, poorly fitted or top-dose-only effect; inactive = no such curve, though single readings can be large or run the other way. Potencies beside an inconclusive call are fits to weak or partial responses and may not hold up.
# Test: A quantitative high throughput screen for small molecules that induce DNA re-replication in SW480 colon adenocarcinoma cells. Also: nearly all actives have a fitted effect of over 55% in size. As to re-replication activation: % of control where 0% means no effect.
# Conditions: Hoechst DNA content imaging, 48 h; re-replication activation: at 46.1 µM (top of the series) unless noted
# Procedure, shortened: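 Cells (250 per well) received 23 nL compound or DMSO by pin tool and were kept 48 hr at 37 C, 5% CO2. Nuclei were then stained with Hoechst for 40 min and scanned for DNA content.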
# Potency is read from the fitted curve at half-maximal effect.
SMILES,re-replication activation,Potency
O=C(OCCCOC(=O)c1cc[n+]([O-])cc1)c1cc[n+]([O-])cc1,inactive: 2.56%,–
O=C(CN1CCN(S(=O)(=O)c2cccc(F)c2)CC1)Nc1ccnn1C1CCCC1,–,"inconclusive: 0.731 µM [activator, full curve, poor fit]"
COc1ccc(C(C(=O)NCc2ccccc2)N(C(=O)c2snc(C(N)=O)c2N)c2ccccc2OC)cc1 (stereo not drawn),–,"inconclusive: 6.51 µM [activator, partial curve, poor fit]"
Cc1ccc(NC(=O)c2cc3cc(OC(F)(F)F)ccc3[nH]2)cc1,inactive: -27.4%,–
CS(=O)(=O)c1nc(S(=O)(=O)c2ccc(Cl)cc2)c(N2CCCCC2)s1,–,"inconclusive: 13 µM [activator, partial curve, poor fit]"
C/C(=N\NC(=O)c1ccccc1F)c1ccccn1,–,"inconclusive: 3.26 µM [activator, full curve, poor fit]"
CCOC(=O)CNC(=S)N(Cc1ccccc1F)C1CCCCC1,–,"inconclusive: 6.51 µM [activator, partial curve, poor fit]"
Cc1ccccc1-c1nc(S(=O)(=O)c2ccc(Cl)cc2)c(NCCN2CCOCC2)o1,–,"inconclusive: 18.4 µM [activator, single point]"
Cc1cc(C)c2c(C)nn(C3CCCCC3)c2n1,inactive: -6.8%,–
COC(=O)C(NC(=O)c1ccccc1Cl)(Nc1ncc(S(=O)(=O)c2ccc([N+](=O)[O-])cc2)s1)C(F)(F)F (stereo not drawn),–,"inconclusive: 29.1 µM [activator, single point]"
COc1ccc2c(c1)CCc1c(C(=O)NCCN3CCOCC3)noc1-2,inactive: 2.26%,–
CCN(C(=O)CN1C(=O)NC(c2ccccc2)(c2ccc(C)c(C)c2)C1=O)C1CCCCC1 (stereo not drawn),–,"inconclusive: 29.1 µM [activator, single point]"
CCCN(C(=O)COC(=O)c1nc2nccc(C)n2n1)C1CCS(=O)(=O)C1 (stereo not drawn),inactive: -5.3%,–
CCCCNS(=O)(=O)c1ccc(NS(=O)(=O)c2c(C)cc(C)cc2C)cc1,–,"inconclusive: 20.6 µM [activator, single point]"
Cc1nc2nc(SCc3ccc([N+](=O)[O-])cc3)[nH]c2cc1Br,–,"inconclusive: 0.291 µM [activator, full curve, poor fit]"
CC1=NN(C(C#N)c2ccc(F)cc2)C(c2ccccc2)C1 (stereo not drawn),–,"inconclusive: 20.6 µM [activator, single point]"
NC(=O)c1ccsc1NC(=O)c1ccc(S(=O)(=O)N2CCCc3ccccc32)cc1,–,"inconclusive: 29.1 µM [activator, single point]"
Cc1noc2ncnc(Sc3c(Cl)cccc3Cl)c12,–,"inconclusive: 14.1 µM [activator, single point]"

# Record cards (already shown):
# `CCCCNS(=O)(=O)c1ccc(NS(=O)(=O)c2c(C)cc(C)cc2C)cc1` as listed: Potency: inconclusive: 20.6 µM [activator, single point]
# `COc1ccc(C(C(=O)NCc2ccccc2)N(C(=O)c2snc(C(N)=O)c2N)c2ccccc2OC)cc1` (stereo not drawn) as listed: Potency: inconclusive: 6.51 µM [activator, partial curve, poor fit]
